Screen size: about 330,000 compounds; about 7,700 (2.3%) were called active. The shares of active, inactive and inconclusive entries below differ from those in the screen. The call rests on the fitted dose curve; in most records, active means well fitted inhibition curve with a large enough effect; inconclusive means small, poorly fitted or top-dose-only effect, or effect the other way; inactive means flat fitted curve, though single readings scatter. Potencies of inconclusive entries are doubtful fits and often do not repeat.
Experiment: qHTS screen for small molecules that inhibit ELG1-dependent DNA repair in human embryonic kidney (HEK293T) cells expressing luciferase-tagged ELG1; further: nearly all actives have a fitted effect of over 55% in size
Settings: HEK293T ELG1-luciferase reporter, luminescence, 16 h, DNA damage induced by 5-fluorouridine; activity change, negative = inhibition: at 46.1 µM (top of the series)
How it was run: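 Step one: seed 2,000 cells per well. Step two: pin-transfer compound or DMSO alongside 5-fluorouridine. Step three: incubate 16 hr, 37 °C, 5% CO2. Step four: add ONE-Glo, wait 30 min, read luminescence.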
On the % scale 0 is the no-effect control and ±100 the full control effect; potency means the concentration at half of the fitted maximal effect.

| Compound | Potency | activity change, negative = inhibition |
| --- | --- | --- |
| CC(=O)Nc1ccc(Nc2nnc(-c3ccc(C)c(S(=O)(=O)NCC4CCCO4)c3)c3ccccc23)cc1 (configuration not stated) | active: 20.6 µM | – |
| COc1cccc2cc(C(=O)NCc3ccccn3)c(=O)oc12 | inconclusive: 18.4 µM [activator, partial curve] | – |
| CC(C)C(=O)O/N=C(\N)c1ccc(Oc2ccc(Cl)cc2)c([N+](=O)[O-])c1 | – | inactive: -5.5% |
| O=C(O)c1cc(-c2ccc(/C=C3\NC(=O)N(c4ccc(Cl)cc4)C3=O)o2)ccc1Cl | – | inactive: 6.29% |
| N=C1C(c2ccccc2)=C(O)CN1c1ccc2c(c1)OCO2 | – | inactive: -5.13% |
| Clc1ccc(CN=C(Nc2ccccc2)NC2CCCCC2)cc1 | inconclusive: 32.6 µM [inhibitor, partial curve, poor fit] | – |
| COc1ccc(/C=C2\Sc3ccc(C(=O)NC4CC4)cc3N(C)C2=O)cc1OC | active: 11.6 µM | – |
| CC(C)(C)c1ccc(C(=O)N2CCNC(=O)C2CC(=O)Nc2ccc(F)cc2)cc1 (configuration not stated) | – | inactive: -1.86% |
| CCN1CCN(c2ccc(S(=O)(=O)N3CCCCC3)cc2NC(=O)c2cccc(OC(F)F)c2)CC1 | inconclusive: 18.3 µM [inhibitor, partial curve, poor fit] | – |
| CCOCc1c(C(=O)OCC(=O)NCc2ccc(F)cc2)oc2ccccc12 | – | inactive: 8.02% |
| Cc1ccc(C)c(NC(=O)CCc2nnc3ccc(N4CCCCC4)nn23)c1 | – | inactive: 13.4% |
| COc1ccc(C(=O)COC(=O)c2cncc(Br)c2)cc1 | inconclusive: 18.3 µM [inhibitor, partial curve] | – |
| CCOc1ccccc1CN1CCN(Cc2cc(=O)c3ccccc3[nH]2)CC1CCO (configuration not stated) | – | inactive: -18.5% |
| COc1ccc(C2=NN(c3ccc(C=O)cc3)C(c3ccccc3)C2)cc1 (configuration not stated) | inconclusive: 10.3 µM [inhibitor, partial curve] | – |
| CN(C(=O)CSc1nc2c(c(=O)[nH]1)CCCC2)C1CCCCC1 | – | inactive: 18.4% |
| COc1cccc(/C=N/NC(=O)c2cc3c(OC)cccc3[nH]2)c1O | inconclusive: 7.31 µM [inhibitor, partial curve] | – |
| CNC[C@H]1Oc2c(NC(=O)c3ccc(-c4nccs4)cc3)cccc2C(=O)N([C@@H](C)CO)C[C@@H]1C | – | inactive: 12% |
| O=C(c1ccc(F)cc1)N1CCC(C(=O)N2CCN(S(=O)(=O)c3cccc(Cl)c3)CC2)CC1 | – | inactive: -0.151% |
| COc1cc(NC(=O)c2ccccc2OCc2ccccc2)cc(OC)c1OC | active: 16.4 µM | – |
| O=C(CSc1nnc(-c2cccnc2)s1)Nc1ccnc2ccccc12 | active: 11.6 µM | – |
| Fc1ccc(CO/N=C2\CCCc3nonc32)cc1 | inconclusive: 20.6 µM [activator, partial curve] | – |
| Cc1cccc(C(=O)N[C@H](C(=O)Nc2nnc(C3CC3)s2)C(C)C)c1 | – | inactive: 13.6% |
| COc1ccc(C(=O)NNC2=C(C(=O)C(F)(F)F)CCC2)cc1 | inconclusive: 20.6 µM [inhibitor, single point] | – |
| O=C([C@@H]1Cc2ccccc2CN1)N1CCN(Cc2ccccc2)CC1 | – | inactive: 4.66% |

In the list so far, these contain an aryl methoxy group:

| Compound | Potency | activity change, negative = inhibition |
| --- | --- | --- |
| COc1cccc2cc(C(=O)NCc3ccccn3)c(=O)oc12 | inconclusive: 18.4 µM [activator, partial curve] | – |
| COc1ccc(/C=C2\Sc3ccc(C(=O)NC4CC4)cc3N(C)C2=O)cc1OC | active: 11.6 µM | – |
| COc1ccc(C(=O)COC(=O)c2cncc(Br)c2)cc1 | inconclusive: 18.3 µM [inhibitor, partial curve] | – |
| COc1ccc(C2=NN(c3ccc(C=O)cc3)C(c3ccccc3)C2)cc1 (configuration not stated) | inconclusive: 10.3 µM [inhibitor, partial curve] | – |
| COc1cccc(/C=N/NC(=O)c2cc3c(OC)cccc3[nH]2)c1O | inconclusive: 7.31 µM [inhibitor, partial curve] | – |
| COc1cc(NC(=O)c2ccccc2OCc2ccccc2)cc(OC)c1OC | active: 16.4 µM | – |
| COc1ccc(C(=O)NNC2=C(C(=O)C(F)(F)F)CCC2)cc1 | inconclusive: 20.6 µM [inhibitor, single point] | – |

Further records

| Compound | Potency | activity change, negative = inhibition |
| --- | --- | --- |
| C#CCOCCOCCOCCNc1nc(N2CCOCC2)nc(N2CCN(C(=O)CCCCCCCCCCNC(=O)[C@@H]([C@H](C)O)n3cc(C)nn3)CC2)n1 | inconclusive: 28.2 µM [inhibitor, single point] | – |
| CCSc1nnc(NC(=O)c2ccc3nc[nH]c3c2)s1 | inconclusive: 11.6 µM [activator, partial curve] | – |
| CCN(CC)c1nc(-c2ccccc2)nc2ccccc12 | inconclusive: 29.1 µM [inhibitor, single point] | – |
| O=C(Nc1ccc2c(c1)OCO2)c1ccccn1 | inconclusive: 5.8 µM [activator, partial curve] | – |
| COc1ccc(-c2nnc3c4ccccc4c(C)nn23)cc1S(=O)(=O)N1CCN(CCO)CC1 | inconclusive: 29.1 µM [inhibitor, single point] | – |
| COc1cc(C(=O)OCCc2c(C)nc3nc[nH]n3c2=O)cc(OC)c1OC | – | inactive: 0.571% |
| CN(C)NC(=S)Nc1ccc(Cl)cc1 | – | inactive: 0% |
| COC(=O)c1ccc(/C=N/Nc2nc(N3CCCCC3)nc(N3CCCCC3)n2)cc1 | – | inactive: 7.36% |
| CN(C)S(=O)(=O)c1cccc(NC(=O)c2cccc(NS(=O)(=O)c3ccccc3)c2)c1 | – | inactive: -46.7% |
| COn1c(SCc2ccc(Cl)cc2)nc2ccccc2c1=O | inconclusive: 3.26 µM [activator, single point] | – |
| Cc1ccc(NC(=S)NC(=O)c2cccs2)cc1F | inconclusive: 18.3 µM [activator, partial curve] | – |
| COC(=O)c1c(C(=O)OC)c2n(c1C)Cc1ccccc1C2 | inconclusive: 25.9 µM [inhibitor, single point] | – |
| Cc1ccc(C(=O)NCCSC(C)(C)C)cc1[N+](=O)[O-] | inconclusive: 9.2 µM [activator, partial curve] | – |
| C/C(N)=C(/C#N)C(=O)CSc1nnnn1-c1ccc(C)cc1 | inconclusive: 4.11 µM [activator, single point] | – |
| COc1ccccc1NC(=O)CCC(=O)OCC(=O)c1ccc(C)c([N+](=O)[O-])c1 | – | inactive: 12.2% |
| C=CC[C@@H](CC(=O)N(CCO)Cc1ccccc1)C(=O)N[C@H](COC(=O)[C@@H](CC=C)Cc1ccc(F)cc1)Cc1ccccc1 | – | inactive: -21.9% |
| O=C(Nc1ccc2c(c1)OCO2)C(c1ccccc1)N1CCN(C(=O)c2ccco2)CC1 (configuration not stated) | inconclusive: 29.1 µM [inhibitor, single point] | – |
| CCOC(=O)CN1C(=O)N[C@@H](c2ccc(Br)cc2)C(C(=O)OC)=C1C | – | inactive: 7.17% |
| COc1ccc(CNCCC(c2ccccc2)c2ccc(OC(C)C)cc2)cc1OC (configuration not stated) | inconclusive: 25.9 µM [inhibitor, single point] | – |
| O=C(NCCc1ccccc1)c1ccc2c(c1)S(=O)(=O)c1cc(Cl)ccc1C2=O | inconclusive: 29.1 µM [inhibitor, single point] | – |
| CCCCOc1ccc(Nc2cc(Cl)ccc2C(=O)O)cn1 | – | inactive: 4.22% |
| CN(Cc1nc2ccccc2c(=O)[nH]1)C(=O)c1cccc(NC(=O)c2cccs2)c1 | inconclusive: 16.4 µM [inhibitor, single point] | – |
| O=C1CSC(=S)N1/N=C/c1ccc2c(c1)OCCO2 | – | inactive: -2.38% |

Two records picked at random from the list so far, as already listed:

| Compound | Potency | activity change, negative = inhibition |
| --- | --- | --- |
| O=C(Nc1ccc2c(c1)OCO2)c1ccccn1 | inconclusive: 5.8 µM [activator, partial curve] | – |
| Cc1cccc(C(=O)N[C@H](C(=O)Nc2nnc(C3CC3)s2)C(C)C)c1 | – | inactive: 13.6% |
